Results from patent publication US20220064272A1.
No constants are given. Whether binding was seen depends on the method and setting. Some entries that bind do so weakly or less than the wild type.

By UniProt entry, the sequences of proteins in these tests, tags left out. Where a name states a change or a piece, a line headed by the entry shows the natural chain unless it says otherwise.
UniProt P10636: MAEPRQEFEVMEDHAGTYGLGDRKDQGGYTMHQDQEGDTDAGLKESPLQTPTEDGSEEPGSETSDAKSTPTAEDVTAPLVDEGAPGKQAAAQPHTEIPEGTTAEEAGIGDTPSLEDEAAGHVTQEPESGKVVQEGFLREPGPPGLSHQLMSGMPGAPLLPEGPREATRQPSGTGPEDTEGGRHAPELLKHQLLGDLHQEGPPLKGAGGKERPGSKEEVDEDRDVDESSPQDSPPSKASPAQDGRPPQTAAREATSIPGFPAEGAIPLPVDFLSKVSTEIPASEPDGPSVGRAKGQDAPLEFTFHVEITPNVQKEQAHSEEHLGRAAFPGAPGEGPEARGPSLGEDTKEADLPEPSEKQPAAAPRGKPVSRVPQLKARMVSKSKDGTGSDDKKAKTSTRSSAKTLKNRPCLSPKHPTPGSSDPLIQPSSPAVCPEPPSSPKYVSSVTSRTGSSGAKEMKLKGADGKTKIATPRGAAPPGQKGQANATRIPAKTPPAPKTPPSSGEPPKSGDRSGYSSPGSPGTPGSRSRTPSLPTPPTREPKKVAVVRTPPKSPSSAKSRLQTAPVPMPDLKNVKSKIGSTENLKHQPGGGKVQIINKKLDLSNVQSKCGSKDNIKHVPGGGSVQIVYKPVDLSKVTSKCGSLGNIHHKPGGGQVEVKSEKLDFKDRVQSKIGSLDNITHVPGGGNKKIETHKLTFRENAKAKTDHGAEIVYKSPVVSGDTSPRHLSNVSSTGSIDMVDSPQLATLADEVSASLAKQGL

Tests used:
[1] = target: TauC3 (C-terminally truncated tau fragment ending at aspartate 421 of htau40) (human) (UniProt P10636); assay: summary of ELISA, Octet and Biacore
[2] = target: TauC3 (C-terminally truncated tau fragment ending at aspartate 421 of htau40) (human) (UniProt P10636); assay: ELISA, Octet, Biacore
[3] = target: TauC3 (C-terminally truncated tau fragment ending at aspartate 421 of htau40) (human) (UniProt P10636); assay: binding ELISA on TauC3 at the EC80 concentration after 10 min heating at the temperature shown
[4] = target: TauC3 (C-terminally truncated tau fragment ending at aspartate 421 of htau40) (human) (UniProt P10636); assay: binding ELISA on TauC3 after 21 days at 37 C in PBS or mouse, human, cynomolgus serum, with non-incubated control
[5] = target: TauC3 (C-terminally truncated tau fragment ending at aspartate 421 of htau40) (human) (UniProt P10636); assay: binding ELISA at EC80 after 10 min heating
[6] = target: TauC3 (C-terminally truncated tau fragment ending at aspartate 421 of htau40) (human) (UniProt P10636); assay: SPR (Biacore) off-rate ranking, TauC3 amine-coupled on CM5
[7] = target: TauC3 (C-terminally truncated tau fragment ending at aspartate 421 of htau40) (human) (UniProt P10636); assay: binding ELISA and Octet screening
[8] = target: TauC3 (C-terminally truncated tau fragment ending at aspartate 421 of htau40) (human) (UniProt P10636); assay: SPR (Biacore) kinetics, summary sentence to Table 16
[9] = target: TauC3 (C-terminally truncated tau fragment ending at aspartate 421 of htau40) (human) (UniProt P10636); assay: binding ELISA to TauC3 after 21 days in serum
[10] = target: TauC3 (C-terminally truncated tau fragment ending at aspartate 421 of htau40) (human) (UniProt P10636); assay: SPR (Biacore) kinetics, TauC3 amine-coupled on CM5
[11] = target: TauC3 (C-terminally truncated tau fragment ending at aspartate 421 of htau40) (human) (UniProt P10636); assay: binding ELISA, TauC3 coated
[12] = target: TauC3 (C-terminally truncated tau fragment ending at aspartate 421 of htau40) (human) (UniProt P10636); assay: BLI (Octet) screening, 10 nM TauC3
[13] = target: TauC3 (C-terminally truncated tau fragment ending at aspartate 421 of htau40) (human) (UniProt P10636); assay: Biacore kinetics (Table 16)

binding [1] | binding [2] | binding [3] | binding [4] | binding [5] | binding [6] | binding [7] | binding [8] | binding [9] | binding [10] | binding [11] | binding [12] | binding [13] | Binder
binds | binds | binds | binds | binds | binds | binds | binds | binds | binds |  |  |  | Tau01 HMKN HuG4k (antibody, V domains shown) VH: LVQLVESGGGLVQPGGSLKLSCAASGFTFNTYAMNWVRQASGKGLEWVARIRSKSNNYATYYAASVKGRFTISRDDSKSMAYLQMDSLKTEDTAVYYCVGGGDFWGQGTLVTVSS VL: DIQMTQSPSSLSASVGDRVTITCRASQEISVYLGWYQQKPGKAPKRLIYGAFTLQSGVPSRFSGSRSGTEYTLTISSLQPEDFATYYCLQYVRYPWTFGGGTKVEIK
 |  |  |  |  |  | binds |  |  |  | binds |  |  | Tau01 HMKI (antibody, V domains shown) VH: LVQLVESGGGLVQPGGSLKLSCAASGFTFNTYAMNWVRQASGKGLEWVARIRSKSNNYATYYAASVKGRFTISRDDSKSMAYLQMDSLKTEDTAVYYCVGGGDFWGQGTLVTVSS VL: DIQMTQSPSSLSASVGDRVTITCRASQEISVYLGWYQQKPGKAPKRLIYGAFKLQSGVPSRFSGSRSGTEYTLTISSLQPEDFATYYCLQYVRYPWTFGGGTKVEIK
 |  |  |  |  |  | binds |  |  |  | binds |  |  | Tau01 HMKJ (antibody, V domains shown) VH: LVQLVESGGGLVQPGGSLKLSCAASGFTFNTYAMNWVRQASGKGLEWVARIRSKSNNYATYYAASVKGRFTISRDDSKSMAYLQMDSLKTEDTAVYYCVGGGDFWGQGTLVTVSS VL: DIQMTQSPSSLSASVGDRVTITCRASQEISVYLGWYQQKPGKAPKRLIYGAFSLQSGVPSRFSGSRSGTEFTLTISSLQPEDFATYYCLQYVRYPWTFGGGTKVEIK
binds | binds | binds | binds | binds | binds | binds | binds | binds | binds |  |  | binds | Tau01 HMKP HuG4k (antibody, V domains shown) VH: LVQLVESGGGLVQPGGSLKLSCAASGFTFNTYAMNWVRQASGKGLEWVARIRSKSNNYATYYAASVKGRFTISRDDSKSMAYLQMDSLKTEDTAVYYCVGGGDFWGQGTLVTVSS VL: DIQMTQSPSSLSASVGDRVTITCRASQEISVYLGWFQQKPGKAPKRLIYGAFKLQSGVPSRFSGSRSGTEYTLTISSLQPEDFATYYCLQYVRYPWTFGGGTKVEIK
 |  |  |  |  |  |  |  |  |  | binds |  |  | Tau01 HMKL (antibody, V domains shown) VH: LVQLVESGGGLVQPGGSLKLSCAASGFTFNTYAMNWVRQASGKGLEWVARIRSKSNNYATYYAASVKGRFTISRDDSKSMAYLQMDSLKTEDTAVYYCVGGGDFWGQGTLVTVSS VL: DIQMTQSPSSLSASVGDRVTITCRASQEISVYLSWFQQKPGKAIKRLIYGAFKLQSGVPSRFSGSRSGTEYTLTISSLQPEDFATYYCLQYVRYPWTFGGGTKVEIK
binds | binds |  |  |  | binds |  | binds | binds |  |  | binds |  | Tau01 HMKM HuG4k (antibody, V domains shown) VH: LVQLVESGGGLVQPGGSLKLSCAASGFTFNTYAMNWVRQASGKGLEWVARIRSKSNNYATYYAASVKGRFTISRDDSKSMAYLQMDSLKTEDTAVYYCVGGGDFWGQGTLVTVSS VL: DIQMTQSPSSLSASVGDRVTITCRASQEISVYLSWFQQKPGKAIKRLIYGAFSLQSGVPSRFSGSRSGTEYTLTISSLQPEDFATYYCLQYVRYPWTFGGGTKVEIK
binds | binds | binds | binds | binds | binds | binds | binds | binds | binds |  |  |  | Tau01 HMKO HuG4k (antibody, V domains shown) VH: LVQLVESGGGLVQPGGSLKLSCAASGFTFNTYAMNWVRQASGKGLEWVARIRSKSNNYATYYAASVKGRFTISRDDSKSMAYLQMDSLKTEDTAVYYCVGGGDFWGQGTLVTVSS VL: DIQMTQSPSSLSASVGDRVTITCRASQEISVYLGWYQQKPGKAPKRLIYGAFSLQSGVPSRFSGSRSGTEYTLTISSLQPEDFATYYCLQYVRYPWTFGGGTKVEIK

Second part, the binder before the results:

Binder | binding [1] | binding [2] | binding [3] | binding [4] | binding [5] | binding [6] | binding [7] | binding [8] | binding [9] | binding [10] | binding [11] | binding [12] | binding [13]
Tau01 HMKE HuG4k (antibody, V domains shown) VH: LVQLVESGGGLVQPGGSLKLSCAASGFTFNTYAMNWVRQASGKGLEWVARIRSKSNNYATYYAASVKGRFTISRDDSKSMAYLQMDSLKTEDTAVYYCVGGGDFWGQGTLVTVSS VL: DIQMTQSPSSLSASVGDRVTITCRASQEISVYLGWFQQKPGKAPKRLIYGAFKLQSGVPSRFSGSRSGTEFTLTISSLQPEDFATYYCLQYVRYPWTFGGGTKVEIK | binds | binds | binds | binds | binds | binds | binds | binds | binds | binds |  |  | 
Tau01 HCKM (antibody, V domains shown) VH: LVQLVESGGGLVQPGGSLKLSCAASGFTFNTYAMNWVRQASGKGLEWVGRIRSKSNNYATYYAASVKGRFTISRDDSKSMAYLQMDSLKTEDTAVYYCVGGGDFWGQGTLVTVSS VL: DIQMTQSPSSLSASVGDRVTITCRASQEISVYLSWFQQKPGKAIKRLIYGAFSLQSGVPSRFSGSRSGTEYTLTISSLQPEDFATYYCLQYVRYPWTFGGGTKVEIK |  |  |  |  |  |  |  |  |  |  |  | binds | 
Tau01 HMKC (antibody, V domains shown) VH: LVQLVESGGGLVQPGGSLKLSCAASGFTFNTYAMNWVRQASGKGLEWVARIRSKSNNYATYYAASVKGRFTISRDDSKSMAYLQMDSLKTEDTAVYYCVGGGDFWGQGTLVTVSS VL: DIQMTQSPSSLSASVGDRVTITCRASQEISVYLSWFQQKPGKAPKRLIYGAFKLQSGVPSRFSGSRSGTEYTLTISSLQPEDFATYYCLQYVRYPWTFGGGTKVEIK |  |  |  |  |  |  |  |  |  |  | binds |  | 
Tau01 HMKA (antibody, V domains shown) VH: LVQLVESGGGLVQPGGSLKLSCAASGFTFNTYAMNWVRQASGKGLEWVARIRSKSNNYATYYAASVKGRFTISRDDSKSMAYLQMDSLKTEDTAVYYCVGGGDFWGQGTLVTVSS VL: DIQMTQSPSSLSASVGDRVTITCRASQEISVYLGWYQQKPGKAPKRLIYGAFKLQSGVPSRFSGSRSGTEFTLTISSLQPEDFATYYCLQYVRYPWTFGGGTKVEIK |  |  |  |  |  |  | binds |  |  |  | binds |  | 
Tau01 HMKB (antibody, V domains shown) VH: LVQLVESGGGLVQPGGSLKLSCAASGFTFNTYAMNWVRQASGKGLEWVARIRSKSNNYATYYAASVKGRFTISRDDSKSMAYLQMDSLKTEDTAVYYCVGGGDFWGQGTLVTVSS VL: DIQMTQSPSSLSASVGDRVTITCRASQEISVYLSWFQQKPGKAIKRLIYGAFTLQSGVPSRFSGSRSGSEYTLTISSLQPEDFATYYCLQYVRYPWTFGGGTKVEIK |  |  |  |  |  |  | binds |  |  |  | binds |  | 
Tau01 HMKG (antibody, V domains shown) VH: LVQLVESGGGLVQPGGSLKLSCAASGFTFNTYAMNWVRQASGKGLEWVARIRSKSNNYATYYAASVKGRFTISRDDSKSMAYLQMDSLKTEDTAVYYCVGGGDFWGQGTLVTVSS VL: DIQMTQSPSSLSASVGDRVTITCRASQEISVYLGWYQQKPGKAPKRLIYGAFTLQSGVPSRFSGSRSGTEFTLTISSLQPEDFATYYCLQYVRYPWTFGGGTKVEIK |  |  |  |  |  |  | binds |  |  |  | binds |  | 
